The values that follow come from article PMC4974639.

Construct, isoform or probe ends are uncertain for at least one entry. No signal at the amounts used counts as a negative. At least one verdict rests on a figure or table, not on a statement of the authors.

In this data set the target is hA3G-CD2 E259Q (Homo sapiens) (UniProt Q9HC16). Description: EMSA. As to conditions: no shifted band at comparable protein range, EMSA: 60 mM HEPES pH 7.5, 100 mM NaCl, on ice 10 min, native PAGE, recombinant protein, protein details: GST tag removed with PreScission (pGEX-6P-1). For orientation: In EMSA bound probe runs differently from free probe, usually more slowly.

Regarding “ATTATTATTATTTATCCCTATTTATATTTATTGTTATTGTTATTGTTATA [50 nt ssDNA]”, under “label: 5'-FAM (EMSA), single-stranded DNA”, the binding result is listed as “no binding”. For “AUUAUUAUUAUUUAUCCCUAUUUAUAUUUAUUGUUAUUGUUAUUGUUAUA [50 nt RNA]”, the binding result (label: 5'-FAM) is given as “no binding”.
